Reference: the supplement of paper PMC4604168 (melanoma cell lines)
The list shows a part of the results. Repeats are few or missing, and single values can be far off.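 Imaging used 1,536-well plates; nuclei positive for cleaved PARP by antibody were divided by total DNA-stained nuclei to yield the apoptosis fraction. Doses for screening kept most cells viable, and cell lines differ markedly in resting and induced cleaved-PARP levels.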

What follows are compounds tested on IPC-298 (assay: cleaved PARP positive nuclei fraction relative to DMSO control; melanoma cells; higher = more apoptosis). Details: library dose: low library concentration; 72 h.

Going from `COc1ccc(COc2ccc(Cc3cnc(N)nc3N)cc2OC)cc1` + C/C(O)=C(\C#N)C(=O)Nc1cc(Br)ccc1Br [LFM-A13] (first compound 1 µM, partner dose 2 µM) to `COc1cc2c(Oc3ccc4[nH]c(C)cc4c3F)ncnc2cc1OCCCN1CCCC1` [cediranib] + Cc1cc(SCc2sc(-c3ccc(C(F)(F)F)c(F)c3)nc2C)ccc1OCC(=O)O [GW0742] (first compound 0.4 µM, partner dose 2 µM), the “cleaved PARP positive nuclei fraction” value falls from 96.6% to 78.9%.

Compared with `O=C(Oc1ccc([N+](=O)[O-])cc1)N1CCC(C(O)(c2ccc3c(c2)OCO3)c2ccc3c(c2)OCO3)CC1` + CCCCCCCCCCCC1=C(O)C(=O)C=C(O)C1=O [Embelin] (first compound 1 µM, partner dose 1.2 µM), `O=C(O)c1ccc(-c2c[nH]c3ncc(-c4ccccc4)cc23)cc1C1CCCC1` + Cc1cc(SCc2sc(-c3ccc(C(F)(F)F)c(F)c3)nc2C)ccc1OCC(=O)O [GW0742] (first compound 0.16 µM, partner dose 2 µM) is lower in “cleaved PARP positive nuclei fraction” value: 169% for the first, 85% for the second.

First: COc1cc(N2CCC(N3CCN(C)CC3)CC2)ccc1Nc1ncc(Cl)c(Nc2ccccc2S(=O)(=O)C(C)C)n1 + O=C(Oc1ccc([N+](=O)[O-])cc1)N1CCC(C(O)(c2ccc3c(c2)OCO3)c2ccc3c(c2)OCO3)CC1 [JZL184] (first compound 0.08 µM, partner dose 1 µM)
Second: COC(=O)c1sccc1S(=O)(=O)Nc1ccc(Nc2ccccc2)cc1OC + C/C(O)=C(\C#N)C(=O)Nc1cc(Br)ccc1Br [LFM-A13] (first compound 1 µM, partner dose 2 µM)
The “cleaved PARP positive nuclei fraction” value of the first is higher: 164% for the first, 43.6% for the second.

Compared with `O=C(Nc1ccccc1)c1cc([N+](=O)[O-])ccc1Cl` + O=C(Oc1ccc([N+](=O)[O-])cc1)N1CCC(C(O)(c2ccc3c(c2)OCO3)c2ccc3c(c2)OCO3)CC1 [JZL184] (first compound 2 µM, partner dose 1 µM), `COC(=O)c1sccc1S(=O)(=O)Nc1ccc(Nc2ccccc2)cc1OC` + O=C(Oc1ccc([N+](=O)[O-])cc1)N1CCC(C(O)(c2ccc3c(c2)OCO3)c2ccc3c(c2)OCO3)CC1 [JZL184] (first compound 1 µM, partner dose 1 µM) is lower in “cleaved PARP positive nuclei fraction” value: 99.8% for the first, 45.5% for the second.

First: O=C(Oc1ccc([N+](=O)[O-])cc1)N1CCC(C(O)(c2ccc3c(c2)OCO3)c2ccc3c(c2)OCO3)CC1 + CC(C)CCN1c2nc(Nc3cc(F)c(O)c(F)c3)ncc2N(C)C(=O)C1C [BID1870] (first compound 1 µM, partner dose 0.2 µM)
Second: Cc1ccc(NC(=O)c2cccc(N(C)C)c2)cc1NC(=O)c1ccc(O)cc1 + C/C(O)=C(\C#N)C(=O)Nc1cc(Br)ccc1Br [LFM-A13] (first compound 2 µM, partner dose 2 µM)
The “cleaved PARP positive nuclei fraction” value of the first is higher: 287% for the first, 91.4% for the second.

Going from `C[As](C)SC[C@H](NC(=O)CC[C@H](N)C(=O)O)C(=O)NCC(=O)O` [Darinaparsin] + CCN(CC)CCCCNc1ncc2cc(-c3cc(OC)cc(OC)c3)c(NC(=O)NC(C)(C)C)nc2n1 [PD173074] (first compound 0.4 µM, partner dose 0.1 µM) to `C/C(O)=C(\C#N)C(=O)Nc1cc(Br)ccc1Br` + CC(C)CCN1c2nc(Nc3cc(F)c(O)c(F)c3)ncc2N(C)C(=O)C1C [BID1870] (first compound 2 µM, partner dose 0.2 µM), the “cleaved PARP positive nuclei fraction” value falls from 25.2% to 18.7%.

Compared with `Cc1cc(SCc2sc(-c3ccc(C(F)(F)F)c(F)c3)nc2C)ccc1OCC(=O)O` + C/C(O)=C(\C#N)C(=O)Nc1cc(Br)ccc1Br [LFM-A13] (first compound 2 µM, partner dose 2 µM), `NCC(=O)Nc1ccc(-n2nc(C(F)(F)F)cc2-c2ccc3c(ccc4ccccc43)c2)cc1` + O=C(Oc1ccc([N+](=O)[O-])cc1)N1CCC(C(O)(c2ccc3c(c2)OCO3)c2ccc3c(c2)OCO3)CC1 [JZL184] (first compound 1 µM, partner dose 1 µM) is lower in “cleaved PARP positive nuclei fraction” value: 130% for the first, 42.2% for the second.

Going from `O=C(Nc1cccc(Cl)c1)Nc1ncc(CCNc2ncnc3ccsc23)s1` + O=C(Oc1ccc([N+](=O)[O-])cc1)N1CCC(C(O)(c2ccc3c(c2)OCO3)c2ccc3c(c2)OCO3)CC1 [JZL184] (first compound 0.0008 µM, partner dose 1 µM) to `C#Cc1cccc(Nc2ncnc3cc(OCCOC)c(OCCOC)cc23)c1` [erlotinib] + O=C(Oc1ccc([N+](=O)[O-])cc1)N1CCC(C(O)(c2ccc3c(c2)OCO3)c2ccc3c(c2)OCO3)CC1 [JZL184] (first compound 0.8 µM, partner dose 1 µM), the “cleaved PARP positive nuclei fraction” value falls from 95.9% to 68.4%.

Compared with `CC1(C)NC(=O)N(c2ccc([N+](=O)[O-])c(C(F)(F)F)c2)C1=O` [nilutamide] + Cc1cc(SCc2sc(-c3ccc(C(F)(F)F)c(F)c3)nc2C)ccc1OCC(=O)O [GW0742] (first compound 1 µM, partner dose 2 µM), `Cc1cc(SCc2sc(-c3ccc(C(F)(F)F)c(F)c3)nc2C)ccc1OCC(=O)O` + Oc1nc(-c2ccc(C(F)(F)F)cc2)nc2c1CSCC2 [XAV939] (first compound 2 µM, partner dose 2 µM) is lower in “cleaved PARP positive nuclei fraction” value: 61.2% for the first, 58.4% for the second.

First: C[As](C)SC[C@H](NC(=O)CC[C@H](N)C(=O)O)C(=O)NCC(=O)O [Darinaparsin] + COc1ccc(COc2ccc(Cc3cnc(N)nc3N)cc2OC)cc1 [GW2580] (first compound 0.4 µM, partner dose 1 µM)
Second: C/C(O)=C(\C#N)C(=O)Nc1cc(Br)ccc1Br + Cn1cc(/C=C2\C(=O)Nc3cccnc32)c2ccccc21 [GW441756] (first compound 2 µM, partner dose 0.4 µM)
The “cleaved PARP positive nuclei fraction” value of the first is lower: 56.6% for the first, 90.9% for the second.

Going from `Cn1nnc2c(C(N)=O)ncn2c1=O` [temozolomide] + C/C(O)=C(\C#N)C(=O)Nc1cc(Br)ccc1Br [LFM-A13] (first compound 2 µM, partner dose 2 µM) to `OCCn1cc(-c2cnc3nnn(Cc4ccc5ncccc5c4)c3n2)cn1` + Cc1cc(SCc2sc(-c3ccc(C(F)(F)F)c(F)c3)nc2C)ccc1OCC(=O)O [GW0742] (first compound 1 µM, partner dose 2 µM), the “cleaved PARP positive nuclei fraction” value rises from 179% to 277%.

Going from `Cc1cc(SCc2sc(-c3ccc(C(F)(F)F)c(F)c3)nc2C)ccc1OCC(=O)O` + c1cc(-c2cnn3cc(-c4ccc(OCCN5CCCCC5)cc4)cnc23)ccn1 [Dorsomorphin] (first compound 2 µM, partner dose 0.4 µM) to `Oc1nc(-c2ccc(C(F)(F)F)cc2)nc2c1CSCC2` + O=C(Oc1ccc([N+](=O)[O-])cc1)N1CCC(C(O)(c2ccc3c(c2)OCO3)c2ccc3c(c2)OCO3)CC1 [JZL184] (first compound 2 µM, partner dose 1 µM), the “cleaved PARP positive nuclei fraction” value falls from 81.6% to 55.2%.

Compared with `c1cc(-c2cnn3cc(-c4ccc(OCCN5CCCCC5)cc4)cnc23)ccn1` [Dorsomorphin] + O=C(Oc1ccc([N+](=O)[O-])cc1)N1CCC(C(O)(c2ccc3c(c2)OCO3)c2ccc3c(c2)OCO3)CC1 [JZL184] (first compound 0.4 µM, partner dose 1 µM), `COCC[n+]1c2c(n(Cc3cnccn3)c1C)C(=O)c1ccccc1C2=O` + Cc1cc(SCc2sc(-c3ccc(C(F)(F)F)c(F)c3)nc2C)ccc1OCC(=O)O [GW0742] (first compound 0.0004 µM, partner dose 2 µM) is higher in “cleaved PARP positive nuclei fraction” value: 78.5% for the first, 169% for the second.

Going from `C[As](C)SC[C@H](NC(=O)CC[C@H](N)C(=O)O)C(=O)NCC(=O)O` [Darinaparsin] + CCCCCCCCCCCC1=C(O)C(=O)C=C(O)C1=O [Embelin] (first compound 0.4 µM, partner dose 1.2 µM) to `Cc1cc(SCc2sc(-c3ccc(C(F)(F)F)c(F)c3)nc2C)ccc1OCC(=O)O` + Cc1cc([N+](=O)[O-])ccc1NS(=O)(=O)c1cc(Cl)ccc1Cl [FH535] (first compound 2 µM, partner dose 1 µM), the “cleaved PARP positive nuclei fraction” value rises from 54.6% to 106%.

Going from `C[As](C)SC[C@H](NC(=O)CC[C@H](N)C(=O)O)C(=O)NCC(=O)O` [Darinaparsin] + Cc1cc(SCc2sc(-c3ccc(C(F)(F)F)c(F)c3)nc2C)ccc1OCC(=O)O [GW0742] (first compound 0.4 µM, partner dose 2 µM) to `CC(C)(C)c1cnc(CSc2cnc(NC(=O)C3CCNCC3)s2)o1` + C/C(O)=C(\C#N)C(=O)Nc1cc(Br)ccc1Br [LFM-A13] (first compound 0.01 µM, partner dose 2 µM), the “cleaved PARP positive nuclei fraction” value falls from 60.5% to 59.6%.

Compared with `Cn1cncc1[C@@](N)(c1ccc(Cl)cc1)c1ccc2c(c1)c(-c1cccc(Cl)c1)cc(=O)n2C` [tipifarnib] + C/C(O)=C(\C#N)C(=O)Nc1cc(Br)ccc1Br [LFM-A13] (first compound 0.01 µM, partner dose 2 µM), `CC(C)(C)c1cnc(CSc2cnc(NC(=O)C3CCNCC3)s2)o1` + Cc1cc(SCc2sc(-c3ccc(C(F)(F)F)c(F)c3)nc2C)ccc1OCC(=O)O [GW0742] (first compound 0.01 µM, partner dose 2 µM) is lower in “cleaved PARP positive nuclei fraction” value: 416% for the first, 61.2% for the second.

In the case of `Cn1cncc1[C@@](N)(c1ccc(Cl)cc1)c1ccc2c(c1)c(-c1cccc(Cl)c1)cc(=O)n2C` [tipifarnib] + Cc1cc(SCc2sc(-c3ccc(C(F)(F)F)c(F)c3)nc2C)ccc1OCC(=O)O [GW0742] (first compound 0.01 µM, partner dose 2 µM), the “cleaved PARP positive nuclei fraction” value was 64.2%.
